Results deposited as PubChem BioAssay AID1508597 (Cure First, 2020)
The deposit covers about 2,100 reagents; below is an unselected part. 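Calls flag viability under 80% in either arm, not effects specific to rucaparib; the reference for percent is not stated.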 Entries without a mark were called inactive. The record does not give: the 100% reference.

Aim: 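Knock-downs altering ovarian cancer cell survival with or without PARP inhibitor rucaparib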 (primary screen)
Cell system: human ovarian carcinoma lines grown from tumours: OCI-P5x (papillary serous) and OCI-C5x (clear cell)
Reagent: siRNA pool against human genes, 1.25 pmol siRNA per well
Duration: 72 h or 96 h, depending on the cell culture
Conditions: rucaparib 20 µM (about IC30) or vehicle, present until read-out
Detection: 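ATP luminescence measured at 72 or 96 h according to the culture, then normalised and expressed as percent viability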
Reading the numbers: viability, normalised: higher = more viable cells remaining
Call rule: 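Active when normalised viability falls below 80 percent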
Meaning of the calls: active = viability under 80%; inactive = viability 80% or more

no.	gene knocked down	rucaparib or vehicle	cell line	technical replicate	viability, normalised (%)
1	COPS3 (COP9 signalosome subunit 3)	Rucaparib	OCI-C5x (clear cell)	1	62.7 (active)
2	COPS3 (COP9 signalosome subunit 3)	Rucaparib	OCI-C5x (clear cell)	2	74.2 (active)
3	COPS3 (COP9 signalosome subunit 3)	Rucaparib	OCI-C5x (clear cell)	3	66.4 (active)
4	COPS3 (COP9 signalosome subunit 3)	Rucaparib	OCI-P5x (serous)	1	69.1 (active)
5	COPS3 (COP9 signalosome subunit 3)	Rucaparib	OCI-P5x (serous)	2	65 (active)
6	COPS3 (COP9 signalosome subunit 3)	Rucaparib	OCI-P5x (serous)	3	61.6 (active)
7	COPS3 (COP9 signalosome subunit 3)	Vehicle	OCI-C5x (clear cell)	1	51.4 (active)
8	COPS3 (COP9 signalosome subunit 3)	Vehicle	OCI-C5x (clear cell)	2	68.3 (active)
9	COPS3 (COP9 signalosome subunit 3)	Vehicle	OCI-C5x (clear cell)	3	49.7 (active)
10	COPS3 (COP9 signalosome subunit 3)	Vehicle	OCI-P5x (serous)	1	60.6 (active)
11	COPS3 (COP9 signalosome subunit 3)	Vehicle	OCI-P5x (serous)	2	73.7 (active)
12	COPS3 (COP9 signalosome subunit 3)	Vehicle	OCI-P5x (serous)	3	67.3 (active)
13	RPS6KA6 (ribosomal protein S6 kinase A6)	Rucaparib	OCI-C5x (clear cell)	1	49.6 (active)
14	RPS6KA6 (ribosomal protein S6 kinase A6)	Rucaparib	OCI-C5x (clear cell)	2	47.6 (active)
15	RPS6KA6 (ribosomal protein S6 kinase A6)	Rucaparib	OCI-C5x (clear cell)	3	42.2 (active)
16	RPS6KA6 (ribosomal protein S6 kinase A6)	Rucaparib	OCI-P5x (serous)	1	112
17	RPS6KA6 (ribosomal protein S6 kinase A6)	Rucaparib	OCI-P5x (serous)	2	96.3
18	RPS6KA6 (ribosomal protein S6 kinase A6)	Rucaparib	OCI-P5x (serous)	3	82.1
19	RPS6KA6 (ribosomal protein S6 kinase A6)	Vehicle	OCI-C5x (clear cell)	1	35 (active)
20	RPS6KA6 (ribosomal protein S6 kinase A6)	Vehicle	OCI-C5x (clear cell)	2	54.6 (active)
21	RPS6KA6 (ribosomal protein S6 kinase A6)	Vehicle	OCI-C5x (clear cell)	3	33.5 (active)
22	RPS6KA6 (ribosomal protein S6 kinase A6)	Vehicle	OCI-P5x (serous)	1	80 (active)
23	RPS6KA6 (ribosomal protein S6 kinase A6)	Vehicle	OCI-P5x (serous)	2	79.2 (active)
24	RPS6KA6 (ribosomal protein S6 kinase A6)	Vehicle	OCI-P5x (serous)	3	73.3 (active)
25	DDX41 (DEAD-box helicase 41)	Rucaparib	OCI-C5x (clear cell)	1	35.5 (active)
26	DDX41 (DEAD-box helicase 41)	Rucaparib	OCI-C5x (clear cell)	2	33 (active)
27	DDX41 (DEAD-box helicase 41)	Rucaparib	OCI-C5x (clear cell)	3	21.4 (active)
28	DDX41 (DEAD-box helicase 41)	Rucaparib	OCI-P5x (serous)	1	50.2 (active)
29	DDX41 (DEAD-box helicase 41)	Rucaparib	OCI-P5x (serous)	2	58.5 (active)
30	DDX41 (DEAD-box helicase 41)	Rucaparib	OCI-P5x (serous)	3	52.3 (active)
31	DDX41 (DEAD-box helicase 41)	Vehicle	OCI-C5x (clear cell)	1	20.4 (active)
32	DDX41 (DEAD-box helicase 41)	Vehicle	OCI-C5x (clear cell)	2	27.9 (active)
33	DDX41 (DEAD-box helicase 41)	Vehicle	OCI-C5x (clear cell)	3	33.7 (active)
34	DDX41 (DEAD-box helicase 41)	Vehicle	OCI-P5x (serous)	1	57.2 (active)
35	DDX41 (DEAD-box helicase 41)	Vehicle	OCI-P5x (serous)	2	47.6 (active)
36	DDX41 (DEAD-box helicase 41)	Vehicle	OCI-P5x (serous)	3	76.8 (active)

The list goes on (7 carried over from the part before).
no.	gene knocked down	rucaparib or vehicle	cell line	technical replicate	viability, normalised (%)
30	DDX41 (DEAD-box helicase 41)	Rucaparib	OCI-P5x (serous)	3	52.3 (active)
31	DDX41 (DEAD-box helicase 41)	Vehicle	OCI-C5x (clear cell)	1	20.4 (active)
32	DDX41 (DEAD-box helicase 41)	Vehicle	OCI-C5x (clear cell)	2	27.9 (active)
33	DDX41 (DEAD-box helicase 41)	Vehicle	OCI-C5x (clear cell)	3	33.7 (active)
34	DDX41 (DEAD-box helicase 41)	Vehicle	OCI-P5x (serous)	1	57.2 (active)
35	DDX41 (DEAD-box helicase 41)	Vehicle	OCI-P5x (serous)	2	47.6 (active)
36	DDX41 (DEAD-box helicase 41)	Vehicle	OCI-P5x (serous)	3	76.8 (active)
37	ETNK2 (ethanolamine kinase 2)	Rucaparib	OCI-C5x (clear cell)	1	53.4 (active)
38	ETNK2 (ethanolamine kinase 2)	Rucaparib	OCI-C5x (clear cell)	2	46.1 (active)
39	ETNK2 (ethanolamine kinase 2)	Rucaparib	OCI-C5x (clear cell)	3	38.1 (active)
40	ETNK2 (ethanolamine kinase 2)	Rucaparib	OCI-P5x (serous)	1	69.7 (active)
41	ETNK2 (ethanolamine kinase 2)	Rucaparib	OCI-P5x (serous)	2	89.3
42	ETNK2 (ethanolamine kinase 2)	Rucaparib	OCI-P5x (serous)	3	86.7
43	ETNK2 (ethanolamine kinase 2)	Vehicle	OCI-C5x (clear cell)	1	35.7 (active)
44	ETNK2 (ethanolamine kinase 2)	Vehicle	OCI-C5x (clear cell)	2	61.1 (active)
45	ETNK2 (ethanolamine kinase 2)	Vehicle	OCI-C5x (clear cell)	3	42.5 (active)
46	ETNK2 (ethanolamine kinase 2)	Vehicle	OCI-P5x (serous)	1	76.2 (active)
47	ETNK2 (ethanolamine kinase 2)	Vehicle	OCI-P5x (serous)	2	66.8 (active)
48	ETNK2 (ethanolamine kinase 2)	Vehicle	OCI-P5x (serous)	3	69.6 (active)
49	WNK4 (WNK lysine deficient protein kinase 4)	Rucaparib	OCI-C5x (clear cell)	1	53.1 (active)
50	WNK4 (WNK lysine deficient protein kinase 4)	Rucaparib	OCI-C5x (clear cell)	2	50.2 (active)
51	WNK4 (WNK lysine deficient protein kinase 4)	Rucaparib	OCI-C5x (clear cell)	3	46.4 (active)
52	WNK4 (WNK lysine deficient protein kinase 4)	Rucaparib	OCI-P5x (serous)	1	58.1 (active)
53	WNK4 (WNK lysine deficient protein kinase 4)	Rucaparib	OCI-P5x (serous)	2	59.8 (active)
54	WNK4 (WNK lysine deficient protein kinase 4)	Rucaparib	OCI-P5x (serous)	3	65.2 (active)
55	WNK4 (WNK lysine deficient protein kinase 4)	Vehicle	OCI-C5x (clear cell)	1	61.7 (active)
56	WNK4 (WNK lysine deficient protein kinase 4)	Vehicle	OCI-C5x (clear cell)	2	60.1 (active)
57	WNK4 (WNK lysine deficient protein kinase 4)	Vehicle	OCI-C5x (clear cell)	3	60.1 (active)
58	WNK4 (WNK lysine deficient protein kinase 4)	Vehicle	OCI-P5x (serous)	1	49.9 (active)
59	WNK4 (WNK lysine deficient protein kinase 4)	Vehicle	OCI-P5x (serous)	2	55.2 (active)
60	WNK4 (WNK lysine deficient protein kinase 4)	Vehicle	OCI-P5x (serous)	3	50.6 (active)
